PubChem BioAssay AID504774 – Drosophila RNAi Screening Center | 2011
In all, the deposit lists about 23,000 reagents; below is a random part of those that have a named target and a result. 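Values are quantile-normalised luminescence on an arbitrary scale; higher means more cells surviving MMS.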 The numbers tell different reagents against one gene apart. A plus sign joins genes that one reagent is predicted to hit. Further read-outs or replicates are left out here. No sequences are given here.

Aim: 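Fly genes whose loss alters survival after alkylation damage to DNA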 (primary screen)
System: Drosophila Kc167 cells
Reagent: long dsRNA against Drosophila genes, about 0.25 µg dsRNA per well
Duration: about 6 days: 3 days knock-down, then 3 days with or without MMS
Conditions: methyl methanesulphonate 0.004% (w/v) for 3 days after knock-down
Measured: 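ATP-dependent luminescence as a measure of live cells in MMS-exposed wells, quantile normalised within each plate, with replicate values also given as a mean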
Scale: mean viability with MMS: higher = more surviving cells after MMS

Eig71Ej
- mean viability with MMS: 3.66e6

Prx2 (Peroxiredoxin 2)
- mean viability with MMS: 3.41e6

CG9919
- mean viability with MMS: 3.46e6

Prosalpha3T (Proteasome alpha3 subunit, Testis-specific)
- mean viability with MMS: 3.58e6

IA-2 (IA-2 protein tyrosine phosphatase) #1
- mean viability with MMS: 3.67e6

IA-2 (IA-2 protein tyrosine phosphatase) #2
- mean viability with MMS: 3.60e6

IA-2 (IA-2 protein tyrosine phosphatase) #3
- mean viability with MMS: 3.66e6

CG10343
- mean viability with MMS: 3.57e6

beta4GalT7 (beta-4-galactosyltransferase 7)
- mean viability with MMS: 3.63e6

CG17385
- mean viability with MMS: 3.75e6

kek5 (kekkon 5)
- mean viability with MMS: 3.92e6

mRpL21 (mitochondrial ribosomal protein L21)
- mean viability with MMS: 3.66e6

GluProRS (Glutamyl-prolyl-tRNA synthetase)
- mean viability with MMS: 3.47e6

mRpS34 (mitochondrial ribosomal protein S34)
- mean viability with MMS: 3.78e6

CG33689
- mean viability with MMS: 3.67e6

aspr (asperous) #1
- mean viability with MMS: 3.51e6

aspr (asperous) #2
- mean viability with MMS: 3.52e6

CG4594
- mean viability with MMS: 3.69e6

CG13739 #1
- mean viability with MMS: 3.20e6

CG13739 #2
- mean viability with MMS: 3.81e6

mRpS25 (mitochondrial ribosomal protein S25)
- mean viability with MMS: 3.68e6

Elp6 (Elongator complex protein 6)
- mean viability with MMS: 3.31e6

CG34268
- mean viability with MMS: 3.58e6

CG17650
- mean viability with MMS: 3.37e6

CG6472
- mean viability with MMS: 3.60e6

CG9338
- mean viability with MMS: 3.53e6

CG12438
- mean viability with MMS: 3.50e6

CG17470
- mean viability with MMS: 3.23e6

y (yellow)
- mean viability with MMS: 3.41e6

CG17002
- mean viability with MMS: 3.61e6

LysD + LysB + LysC (retired record)
- mean viability with MMS: 3.54e6

CG11670
- mean viability with MMS: 3.65e6

CG34024 (retired record)
- mean viability with MMS: 3.51e6

Trhn (Tryptophan hydroxylase neuronal)
- mean viability with MMS: 3.66e6

CG32099
- mean viability with MMS: 3.63e6

2 successive reagents from above, for reference:
CG12438
- mean viability with MMS: 3.50e6

CG17470
- mean viability with MMS: 3.23e6
